Values from PubChem BioAssay AID1259283 (Sanger Institute, 2017).
This is an unselected part of 794 reagents. 14 of all reagents (1.8%) count as active. 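Calls reflect only viability loss without drug; drug synergy does not enter the call.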 Viability is capped at 1. Not all columns of the deposit are shown. Not given: the amount of reagent, the time to read-out.

Assay: 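Kinases needed for HT115 growth and partners for drug synergy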 (primary screen)
Cells: HT115 colorectal cancer cells
Reagent: siRNA pool against human genes
Challenge: anchor drug given one day after siRNA: BYL719 at 1 µM, cetuximab at 5 µg/ml, trametinib at 10 nM, or DMSO vehicle alone
Measured: 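Viability normalised to non-targeting pool #2 wells and averaged over replicates, robust z-score against control wells, and a synergy score for each of three drugs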
Direction: robust z-score, knock-down alone: higher = more viable cells after knock-down; viability, DMSO vs non-targeting control: higher = more viable cells
Active means: 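Essential gene: robust z-score less than -3 with no drug added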
Calls: active = essential (z below -3, no drug); inactive = no change without drug

gene | robust z-score, knock-down alone | viability, DMSO vs non-targeting control (fraction of control) | Call
PRKACA (protein kinase cAMP-activated catalytic subunit alpha) | 0.789 | 1 | inactive
EPHA1 (EPH receptor A1) | 0.752 | 0.997 | inactive
OBSCN | 0.0562 | 0.932 | inactive
PIK3R1 (phosphoinositide-3-kinase regulatory subunit 1) | 0.457 | 0.969 | inactive
PIK3R5 (phosphoinositide-3-kinase regulatory subunit 5) | -1.19 | 0.817 | inactive
GSK3B (glycogen synthase kinase 3 beta) | 0.789 | 1 | inactive
ERN1 (endoplasmic reticulum to nucleus signaling 1) | -1.97 | 0.745 | inactive
DGUOK (deoxyguanosine kinase) | 0.789 | 1 | inactive
LTK (leukocyte receptor tyrosine kinase) | -0.0591 | 0.922 | inactive
CDKN2B (cyclin dependent kinase inhibitor 2B) | -0.0624 | 0.921 | inactive
MAST4 | 0.789 | 1 | inactive
IKBKE (inhibitor of nuclear factor kappa B kinase subunit epsilon) | -1.68 | 0.772 | inactive
NAGK (N-acetylglucosamine kinase) | -0.835 | 0.85 | inactive
PHKB (phosphorylase kinase regulatory subunit beta) | 0.789 | 1 | inactive
MPP2 (MAGUK p55 scaffold protein 2) | 0.694 | 0.991 | inactive
STK25 (serine/threonine kinase 25) | 0.789 | 1 | inactive
ITPKC (inositol-trisphosphate 3-kinase C) | 0.313 | 0.956 | inactive
MYLK2 (myosin light chain kinase 2) | -2.66 | 0.681 | inactive
RIPK1 (receptor interacting serine/threonine kinase 1) | 0.212 | 0.947 | inactive
CHUK | 0.44 | 0.968 | inactive

Entries above whose target name starts with M or m (3):
gene | robust z-score, knock-down alone | viability, DMSO vs non-targeting control (fraction of control) | Call
MAST4 | 0.789 | 1 | inactive
MPP2 (MAGUK p55 scaffold protein 2) | 0.694 | 0.991 | inactive
MYLK2 (myosin light chain kinase 2) | -2.66 | 0.681 | inactive
